# Laboratory results: PubChem BioAssay AID2685 (National Center for Advancing Translational Sciences (NCATS), 2010)
# Some of the results follow. The main result of the screen is listed elsewhere. These columns were measured beside it and carry no call. Most of these compounds were active or inconclusive in the main read-out, so they are no random draw. Potencies come from curve fits of mixed quality, noted in brackets.
# Experiment: qHTS Assay for Lipid Storage Modulators in Drosophila S3 Cells;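 on cell number change: cells counted by Cell Tracker Red CMTPX staining in the red channel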
# Settings: BODIPY lipid droplet fluorescence, 18-24 h; for cell number change: measured here: cell count max response, cells fed with added oleic acid
# How it was run: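 Drosophila S3 cells loaded with oleic acid (400 uM, as added) and compounds at several concentrations; lipid droplets imaged by 488-nm laser-scanning cytometry, 500–530 nm intensity and object ratio to cell channel. Percent activity normalized to 20 uM Triacsin C.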
# [1] = measured here: cell number channel AC50, cells fed with added oleic acid
# [2] = measured here: lipid fluorescence (Fed channel) AC50, cells fed with added oleic acid
compound,measurement,setting,value
COc1ccc(C)cc1NC(=O)C(OC(=O)c1cnccn1)c1ccccc1 (centres undefined),cell number change,,34%
same,AC50,[1],"13 µM [rising, single point]"
Cc1c(Cc2ccccc2)c(NCCCO)n2c(nc3ccccc32)c1C#N,cell number change,,15.9%
OC(CNC1CCCCC1)COCCOc1ccc(Br)cc1 (centres undefined),cell number change,,-3.92%
same,AC50,[2],"5.8 µM [rising, single point]"
O=C(O)c1cnc2ccccc2n1,cell number change,,-5.26%
same,AC50,[2],"0.291 µM [rising, full curve]"
CCOC(=O)c1c(C)c(C(=O)NCc2cccs2)c(C)n1CC,cell number change,,-24.3%
same,AC50,[2],"7.31 µM [falling, partial curve]"
CCOc1ccc(NC(=O)CNC(=O)c2ccco2)cc1,cell number change,,6.78%
same,AC50,[2],"0.0461 µM [rising, full curve, poor fit]"
Cc1cc(C(F)(F)F)n2ncc(C(=O)O)c2n1,AC50,[2],"9.2 µM [falling, partial curve, poor fit]"
COc1cc(/C=C\C(=O)NCc2ccc3[nH]c(C)cc3c2)cc(OC)c1OC,cell number change,,-0.789%
same,AC50,[2],"0.731 µM [rising, partial curve]"
CCNc1nc(NCC)nc(N/N=C(\C)c2ccc(OC)cc2)n1,AC50,[2],"1.84 µM [rising, partial curve, poor fit]"
O=C(NCC(=O)N(c1cccnc1)C(C(=O)NC1CCCCC1)c1ccccc1)c1ccco1 (centres undefined),cell number change,,14.3%
same,AC50,[2],"6.51 µM [rising, single point]"
O=C(/C=C\Nc1cccc(F)c1)c1cccs1,AC50,[1],"1.46 µM [rising, full curve, poor fit]"
same,AC50,[2],"5.8 µM [rising, single point]"
CCN(CC)c1ccc(NC(=S)NC(=O)Cc2ccccc2)cc1,AC50,[2],"0.116 µM [falling, full curve, poor fit]"
CC(=O)N1c2ccc(S(=O)(=O)N3CCC(C(=O)N4CCN(c5ccc(Cl)cc5)CC4)CC3)cc2CC1C (centres undefined),AC50,[2],"29.1 µM [falling, single point]"
O=C1N=C(N2CCOCC2)S/C1=C\c1ccc(OS(=O)(=O)c2ccccc2)cc1,cell number change,,-6.56%
same,AC50,[2],"0.13 µM [falling, full curve, poor fit]"
COc1ccc([C@@H]2CC=C(C(=O)O)CN2S(=O)(=O)c2ccc(Cl)cc2)cc1,AC50,[2],"3.66 µM [rising, partial curve]"
CC(=O)C1=C(O)C(=O)N(c2ccccn2)C1c1ccc(Cl)cc1 (centres undefined),cell number change,,31.4%
Cc1sc2nc(C)n(/N=C/c3ccc(O)cc3)c(=O)c2c1C,AC50,[1],"1.64 µM [rising, partial curve]"
same,AC50,[2],"0.651 µM [rising, single point]"
COC(=O)C1=C(C(=O)c2ccccc2)C(c2ccc(OC)c(OC)c2)Nc2nnnn21 (centres undefined),cell number change,,20.7%
same,AC50,[2],"29.1 µM [rising, single point]"
O=C(Nc1cccc(C(F)(F)F)c1)C1CCN(S(=O)(=O)c2cnc[nH]2)CC1,cell number change,,2.37%
same,AC50,[2],"2.06 µM [rising, partial curve, poor fit]"
Cc1ccc2[nH]c(-c3ccccc3)c(CN3CCN(C)CC3)c(=O)c2c1,cell number change,,-32.3%
same,AC50,[1],"1.16 µM [falling, full curve, poor fit]"
CCCn1nc(C(=O)NCc2ccccn2)c2ccccc2c1=O,cell number change,,16.3%
same,AC50,[1],"0.164 µM [rising, full curve, poor fit]"
COc1ccc(C(=O)Nc2oc(-c3ccccc3)c(-c3ccccc3)c2C#N)cc1OC,cell number change,,25.8%
same,AC50,[1],"3.66 µM [rising, full curve, poor fit]"
same,AC50,[2],"4.11 µM [rising, full curve]"
COc1ccccc1OCC(=O)OCn1c(SC)nnc(C)c1=O,cell number change,,18.9%
same,AC50,[2],"0.082 µM [rising, full curve, poor fit]"
N#Cc1ccccc1NCC(=O)N1CCN(S(=O)(=O)c2ccccc2)CC1,cell number change,,12.3%
same,AC50,[2],"29.1 µM [rising, single point]"
COC(=O)c1ccc(CSc2nnc(CNC(=O)c3ccccc3F)o2)o1,cell number change,,-11%
same,AC50,[2],"6.51 µM [rising, single point]"
O=C(CN1C(=O)C2(OCCO2)c2ccccc21)c1ccc(F)cc1,cell number change,,-50.4%
same,AC50,[2],"0.116 µM [falling, full curve, poor fit]"
CCOC(=O)NNc1ccc(C(F)(F)F)cn1,cell number change,,-0.8%
same,AC50,[2],"2.91 µM [falling, single point]"
Cn1cc([N+](=O)[O-])c(C(=O)Nc2ccc3c(c2)OCCO3)n1,cell number change,,39.5%
same,AC50,[1],"3.26 µM [rising, full curve]"
COc1ccc(NC(=S)NCc2cccs2)cc1OC,cell number change,,11.6%
CCOC(=O)c1[nH]cnc1C(=O)N[C@@H](C)c1ccccc1,cell number change,,-30.9%
same,AC50,[1],"3.66 µM [falling, single point]"
CCCNS(=O)(=O)c1cc(Cl)ccc1OC,cell number change,,-7.15%
same,AC50,[2],"0.082 µM [falling, full curve, poor fit]"
Cc1ccc(C(=O)CSc2nc3ccccc3c(=O)[nH]2)cc1,cell number change,,-15.1%
same,AC50,[2],"6.51 µM [rising, single point]"
Cc1cc(-c2cc(-c3ccc(Cl)cc3)nc(N)c2C#N)co1,cell number change,,-6.03%
Cc1ccc(S(=O)(=O)N2CCc3cc4c(cc3C2C)OCCCO4)cc1 (centres undefined),cell number change,,4.72%
same,AC50,[2],"29.1 µM [falling, single point]"
CC1CCC(C(=O)NC(C(=O)Nc2ccccn2)C(C)C)CC1 (centres undefined),cell number change,,11.2%
O=C(c1ccc(NS(=O)(=O)c2cccc(F)c2)cc1)N1CCCCC1,cell number change,,21.9%
same,AC50,[2],"0.58 µM [rising, single point]"
Cc1ccccc1C1NC(=S)NC2=C1C(=O)CC(C)(C)C2 (centres undefined),cell number change,,18.1%
same,AC50,[1],"0.731 µM [rising, single point]"
same,AC50,[2],"1.84 µM [rising, partial curve]"
O=C(NCc1cccc(Cl)c1)C1CCC(=O)N(CCCN2CCCC2=O)C1 (centres undefined),AC50,[2],"1.46 µM [falling, partial curve]"
COc1cc(CNn2c(C)n[nH]c2=S)cc(Cl)c1OCC(=O)NC(C)(C)C,cell number change,,-2.11%
N#Cc1c(C#N)c(O)c2ccccc2c1O,cell number change,,28.8%
same,AC50,[1],"1.84 µM [rising, full curve, poor fit]"
same,AC50,[2],"0.411 µM [falling, full curve, poor fit]"
Cc1ccc(S(=O)(=O)NC2(C(F)(F)F)NC(=O)N(Cc3ccccc3)C2=O)cc1 (centres undefined),cell number change,,6.92%
Cc1ccc2[nH]cc(CCNC(=O)Nc3ccccc3)c2c1,cell number change,,75%
same,AC50,[1],"4.11 µM [rising, full curve]"
same,AC50,[2],"5.17 µM [rising, full curve]"
O=C(CN(Cc1ccccc1Cl)C(=O)CNS(=O)(=O)c1ccccc1)NCC1CCCO1 (centres undefined),cell number change,,15%
NC(=O)CC(NC(=O)Cc1ccc(Br)cc1)c1ccc(NCc2ccc(F)cc2)c([N+](=O)[O-])c1 (centres undefined),cell number change,,12.5%
CC(=O)c1cnn(-c2nc3c(C)cccc3s2)c1C,AC50,[1],"3.66 µM [rising, single point]"
Cc1nn(-c2ccccc2)c(C)c1C(=O)N1CCN(S(=O)(=O)c2ccccc2)CC1,cell number change,,-15.2%
same,AC50,[2],"0.0259 µM [falling, full curve, poor fit]"
COc1ccc(CCN2CCCn3c2nc2c3c(=O)n(C)c(=O)n2C)cc1OC,cell number change,,4.17%
same,AC50,[2],"3.66 µM [rising, full curve]"
CCc1cc2cc3c(cc2nc1SCC(=O)Nc1c[nH]c(=O)[nH]c1=O)OCO3,cell number change,,39.2%
same,AC50,[1],"20.6 µM [rising, partial curve, poor fit]"
same,AC50,[2],"9.2 µM [rising, partial curve, poor fit]"
Cc1cc(C(=O)CN2C(=O)C(=O)N(Cc3ccco3)C2=O)c(C)n1CCc1ccc(F)cc1,cell number change,,31.3%
same,AC50,[1],"29.1 µM [rising, single point]"
same,AC50,[2],"29.1 µM [rising, single point]"
COc1ccc(NC(=O)C(Cc2ccccc2)n2cccc2)c(OC)c1 (centres undefined),cell number change,,13.5%
same,AC50,[1],"0.164 µM [rising, partial curve, poor fit]"
same,AC50,[2],"3.26 µM [rising, single point]"
CCCCc1nnc(NC(=O)CN2C(=O)C3CCCCC3C2=O)s1 (centres undefined),cell number change,,-27.9%
same,AC50,[2],"1.3 µM [falling, full curve, poor fit]"
O=C(NN=C1CCCC1)c1ccc(O)cc1O,cell number change,,8.8%
same,AC50,[2],"29.1 µM [rising, single point]"
Cc1ccc(-c2nnc(SCC(=O)N3CCCC3)o2)cc1C,cell number change,,124%
same,AC50,[1],"10.3 µM [rising, partial curve]"
same,AC50,[2],"29.1 µM [rising, partial curve]"
CC(=O)C(Cc1ccccc1)NC(=O)CN(C)Cc1ccccc1Cl (centres undefined),cell number change,,-0.806%
same,AC50,[2],"29.1 µM [falling, partial curve, poor fit]"
Cc1ccc(NC(=O)N2CCN(c3ccccn3)CC2)cc1,cell number change,,32.6%
same,AC50,[1],"10.3 µM [rising, single point]"
same,AC50,[2],"5.8 µM [rising, single point]"
O=C(Nc1ccc2c(c1)CCCN2C(=O)c1ccccc1)c1ccccc1Br,cell number change,,-11.8%
same,AC50,[1],"4.11 µM [rising, single point]"
Cc1ccc(S(=O)(=O)n2cc(-c3ccccc3)c3ccccc32)cc1,cell number change,,-30.9%
same,AC50,[1],"29.1 µM [falling, single point]"
same,AC50,[2],"25.9 µM [falling, single point]"
COc1ccc(N2C(=O)CC(N3CCC(O)(c4ccc(Br)cc4)CC3)C2=O)cc1 (centres undefined),cell number change,,15.9%
same,AC50,[1],"0.00461 µM [falling, full curve, poor fit]"
same,AC50,[2],"1.46 µM [falling, partial curve]"
CC(=O)Nc1ccc(NC(=O)COc2ncnc3ccccc23)cc1,cell number change,,-94%
same,AC50,[1],"0.517 µM [falling, full curve]"
same,AC50,[2],"3.66 µM [falling, partial curve]"

# Three records picked at random from those above:
compound,measurement,setting,value
Cc1ccc(S(=O)(=O)N2CCc3cc4c(cc3C2C)OCCCO4)cc1 (centres undefined),AC50,[2],"29.1 µM [falling, single point]"
Cc1cc(C(=O)CN2C(=O)C(=O)N(Cc3ccco3)C2=O)c(C)n1CCc1ccc(F)cc1,AC50,[1],"29.1 µM [rising, single point]"
O=C1N=C(N2CCOCC2)S/C1=C\c1ccc(OS(=O)(=O)c2ccccc2)cc1,cell number change,,-6.56%

# Given tab-delimited: part of the list above.
compound	measurement	setting	value
CCCCc1nnc(NC(=O)CN2C(=O)C3CCCCC3C2=O)s1 (centres undefined)	AC50	[2]	1.3 µM [falling, full curve, poor fit]
O=C(NN=C1CCCC1)c1ccc(O)cc1O	cell number change		8.8%
same	AC50	[2]	29.1 µM [rising, single point]
Cc1ccc(-c2nnc(SCC(=O)N3CCCC3)o2)cc1C	cell number change		124%
same	AC50	[1]	10.3 µM [rising, partial curve]
